Assay results reported in patent US20100160369A1, “S1P1 Agonists and Methods of Making And Using” (EXELIXIS, INC., priority 2008, published 2010).

The chains behind the UniProt entries cited, without tags or fusion partners.
UniProt P21453, whole entry: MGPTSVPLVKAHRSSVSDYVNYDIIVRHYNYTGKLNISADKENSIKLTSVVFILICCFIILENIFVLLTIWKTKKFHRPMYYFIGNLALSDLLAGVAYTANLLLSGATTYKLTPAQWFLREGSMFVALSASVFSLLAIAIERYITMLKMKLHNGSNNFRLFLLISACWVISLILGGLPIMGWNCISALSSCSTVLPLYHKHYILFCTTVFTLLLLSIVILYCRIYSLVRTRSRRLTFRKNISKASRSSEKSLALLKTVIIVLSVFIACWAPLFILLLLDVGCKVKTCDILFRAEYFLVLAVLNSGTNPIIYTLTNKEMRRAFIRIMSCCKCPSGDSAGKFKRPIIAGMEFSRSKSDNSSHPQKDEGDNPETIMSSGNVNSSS
UniProt P32121, whole entry partner: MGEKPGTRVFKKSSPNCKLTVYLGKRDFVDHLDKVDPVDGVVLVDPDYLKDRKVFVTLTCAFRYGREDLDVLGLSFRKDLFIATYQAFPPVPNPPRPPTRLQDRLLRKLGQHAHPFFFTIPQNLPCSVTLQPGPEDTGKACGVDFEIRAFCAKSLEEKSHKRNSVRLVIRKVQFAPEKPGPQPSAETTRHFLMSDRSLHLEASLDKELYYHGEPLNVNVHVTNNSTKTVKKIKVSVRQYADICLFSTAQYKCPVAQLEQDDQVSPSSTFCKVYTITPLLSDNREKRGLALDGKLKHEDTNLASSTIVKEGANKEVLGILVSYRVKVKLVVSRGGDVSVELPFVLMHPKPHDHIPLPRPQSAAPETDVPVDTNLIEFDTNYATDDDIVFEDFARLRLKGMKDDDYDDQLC

Columns and labels:
S1P1 [1] = target: T1, S1P1 (Homo sapiens, UniProt P21453); assay: CNG cAMP Assay (Assay 1); settings: read-out: Assay 1 EC50
Description: Frozen HEK293 cells expressing the CNG channel and S1P1 (BD Biosciences, San Jose, Calif.) were thawed and plated into the wells of a black, clear bottom, 384-well CellBind plate (Corning, Corning, N.Y.) at 14,000 cells per well. HEK293 cells expressing the CNG channel and CB1 (BD Biosciences) were cultured and plated under the same conditions. The cells were incubated for 16 h at 37° C. in complete DMEM medium (Invitrogen Carlsbad, Calif.) containing 10% FBS (HyClone Logan, Utah), 250 μg/mL geneticin (Invitrogen), and 1 μg/mL puromycin (Sigma-Aldrich, St. Louis, Mo.). A membrane potential dye (BD Biosciences) was added and the plates were incubated for 2-2.5 h at room temperature.
Test compounds were tested at maximum concentrations of 10 μM. […] The assay plate was read before compound addition (T0) and after the 90 min incubation (T90) using an EnVision plate reader (PerkinElmer, Waltham, Mass.) at an excitation wavelength of 350 nm and an emission wavelength of 590 nm. The T90/T0 ratio was determined for each concentration of the test compounds. The percent agonist activity was determined as [(test compound−DMSO alone control)/(NECA alone control−DMSO alone control)*100]. […]
Assay 1 is the CNG cAMP Assay as described in Biological Example 1. […] EC50's were measured unless otherwise noted. […]

S1P1 [2] = target: T1, S1P1; assay: Tango β-arrestin Recruitment Assay in HEK293 cells (Assay 2a); settings: read-out: Assay 2a EC50
S1P1 [3] = target: T1, S1P1; assay: Tango β-arrestin Recruitment Assay in U2OS cells (Assay 2b); settings: read-out: Assay 2b EC50

SMILES	EC50 (S1P1 [1]) [nM]	EC50 (S1P1 [2]) [nM]	EC50 (S1P1 [3]) [nM]
CC(CO)Oc1cc(Cl)c(-c2noc(-c3cn4cc(C(F)(F)F)cc(Cl)c4n3)n2)cc1Cl (centres unmarked)	< 100	< 100	< 100
OCC1CC1c1ccc(-c2noc(-c3cn4cc(C(F)(F)F)cc(Cl)c4n3)n2)c(Cl)c1 (centres unmarked)	< 100	< 100	–

The match of structure and compound is tentative.
